From the supplement of paper PMC10849652
The list shows a part of the results.

Sequences of proteins named here, by UniProt entry; tags and fusion partners are left off. A change or cut given only in a name is not applied to a line headed by its entry.
UniProt Q96EB1: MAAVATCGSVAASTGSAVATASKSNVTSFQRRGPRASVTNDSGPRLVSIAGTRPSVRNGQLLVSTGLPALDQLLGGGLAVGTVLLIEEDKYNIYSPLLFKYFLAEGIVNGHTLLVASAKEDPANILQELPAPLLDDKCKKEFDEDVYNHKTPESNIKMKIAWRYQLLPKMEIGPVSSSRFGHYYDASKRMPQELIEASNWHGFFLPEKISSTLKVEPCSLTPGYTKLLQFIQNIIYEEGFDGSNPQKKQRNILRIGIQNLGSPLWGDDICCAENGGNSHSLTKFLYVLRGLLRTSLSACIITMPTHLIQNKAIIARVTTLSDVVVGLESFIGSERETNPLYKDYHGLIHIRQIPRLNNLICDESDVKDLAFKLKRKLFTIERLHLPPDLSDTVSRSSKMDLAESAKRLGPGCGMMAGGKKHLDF
UniProt P13929, whole entry, looked up: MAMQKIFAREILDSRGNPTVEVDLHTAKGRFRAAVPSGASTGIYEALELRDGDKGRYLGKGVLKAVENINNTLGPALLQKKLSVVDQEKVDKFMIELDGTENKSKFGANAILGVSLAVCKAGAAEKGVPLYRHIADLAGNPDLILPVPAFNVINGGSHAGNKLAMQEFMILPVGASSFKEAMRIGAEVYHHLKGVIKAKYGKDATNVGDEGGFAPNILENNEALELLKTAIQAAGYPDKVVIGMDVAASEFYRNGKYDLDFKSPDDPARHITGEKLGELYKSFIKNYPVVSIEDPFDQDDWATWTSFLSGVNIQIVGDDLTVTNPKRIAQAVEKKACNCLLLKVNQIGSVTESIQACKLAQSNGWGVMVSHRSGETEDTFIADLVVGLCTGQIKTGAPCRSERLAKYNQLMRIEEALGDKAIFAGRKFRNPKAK
UniProt Q9NPA0: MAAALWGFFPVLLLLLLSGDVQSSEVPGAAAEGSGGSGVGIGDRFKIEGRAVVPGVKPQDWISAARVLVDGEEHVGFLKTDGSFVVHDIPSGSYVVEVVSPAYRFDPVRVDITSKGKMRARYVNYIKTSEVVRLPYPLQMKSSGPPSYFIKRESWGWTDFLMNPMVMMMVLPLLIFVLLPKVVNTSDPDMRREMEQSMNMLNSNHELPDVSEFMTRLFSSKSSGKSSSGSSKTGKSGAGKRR
UniProt Q9NPA8: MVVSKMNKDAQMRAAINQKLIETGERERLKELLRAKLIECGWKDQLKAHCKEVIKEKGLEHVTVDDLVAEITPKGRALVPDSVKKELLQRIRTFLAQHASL
UniProt Q9H4G0, whole entry, looked up: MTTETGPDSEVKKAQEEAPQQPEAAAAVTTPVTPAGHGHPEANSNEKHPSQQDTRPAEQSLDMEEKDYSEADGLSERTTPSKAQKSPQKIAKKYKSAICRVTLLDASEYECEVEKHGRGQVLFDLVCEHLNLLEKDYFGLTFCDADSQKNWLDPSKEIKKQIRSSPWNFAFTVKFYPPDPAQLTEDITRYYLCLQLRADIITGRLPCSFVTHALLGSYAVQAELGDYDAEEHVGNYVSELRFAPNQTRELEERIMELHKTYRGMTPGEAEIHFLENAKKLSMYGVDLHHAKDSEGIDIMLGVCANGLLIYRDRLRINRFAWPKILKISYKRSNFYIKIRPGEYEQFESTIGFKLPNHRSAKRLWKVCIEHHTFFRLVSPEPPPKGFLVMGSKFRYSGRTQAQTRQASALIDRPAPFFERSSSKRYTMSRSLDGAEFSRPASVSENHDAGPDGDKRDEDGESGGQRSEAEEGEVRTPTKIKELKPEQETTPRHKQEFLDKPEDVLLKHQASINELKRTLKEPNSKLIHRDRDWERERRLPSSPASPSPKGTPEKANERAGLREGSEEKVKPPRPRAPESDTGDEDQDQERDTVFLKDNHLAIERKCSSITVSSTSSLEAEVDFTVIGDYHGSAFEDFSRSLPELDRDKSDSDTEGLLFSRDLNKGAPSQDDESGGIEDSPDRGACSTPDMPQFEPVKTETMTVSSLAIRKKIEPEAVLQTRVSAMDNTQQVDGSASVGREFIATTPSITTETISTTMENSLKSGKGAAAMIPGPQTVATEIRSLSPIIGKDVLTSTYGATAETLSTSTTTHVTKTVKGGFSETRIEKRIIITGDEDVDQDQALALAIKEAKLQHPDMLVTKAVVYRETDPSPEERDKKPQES
UniProt P19525: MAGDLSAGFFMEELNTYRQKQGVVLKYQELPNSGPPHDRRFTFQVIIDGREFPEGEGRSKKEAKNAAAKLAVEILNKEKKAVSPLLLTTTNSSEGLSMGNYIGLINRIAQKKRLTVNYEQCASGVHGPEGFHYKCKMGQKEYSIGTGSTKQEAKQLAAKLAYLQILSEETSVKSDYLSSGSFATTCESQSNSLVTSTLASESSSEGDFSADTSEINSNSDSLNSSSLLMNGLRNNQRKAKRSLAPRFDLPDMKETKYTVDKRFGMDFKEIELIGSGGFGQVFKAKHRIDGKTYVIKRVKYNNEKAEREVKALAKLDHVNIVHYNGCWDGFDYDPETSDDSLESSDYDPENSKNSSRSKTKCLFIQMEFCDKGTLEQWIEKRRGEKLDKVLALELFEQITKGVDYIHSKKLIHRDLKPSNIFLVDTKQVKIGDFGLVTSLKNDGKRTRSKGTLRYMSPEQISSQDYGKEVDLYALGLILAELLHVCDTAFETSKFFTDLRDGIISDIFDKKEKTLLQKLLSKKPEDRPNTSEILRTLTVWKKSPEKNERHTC
UniProt P34913, whole entry, looked up: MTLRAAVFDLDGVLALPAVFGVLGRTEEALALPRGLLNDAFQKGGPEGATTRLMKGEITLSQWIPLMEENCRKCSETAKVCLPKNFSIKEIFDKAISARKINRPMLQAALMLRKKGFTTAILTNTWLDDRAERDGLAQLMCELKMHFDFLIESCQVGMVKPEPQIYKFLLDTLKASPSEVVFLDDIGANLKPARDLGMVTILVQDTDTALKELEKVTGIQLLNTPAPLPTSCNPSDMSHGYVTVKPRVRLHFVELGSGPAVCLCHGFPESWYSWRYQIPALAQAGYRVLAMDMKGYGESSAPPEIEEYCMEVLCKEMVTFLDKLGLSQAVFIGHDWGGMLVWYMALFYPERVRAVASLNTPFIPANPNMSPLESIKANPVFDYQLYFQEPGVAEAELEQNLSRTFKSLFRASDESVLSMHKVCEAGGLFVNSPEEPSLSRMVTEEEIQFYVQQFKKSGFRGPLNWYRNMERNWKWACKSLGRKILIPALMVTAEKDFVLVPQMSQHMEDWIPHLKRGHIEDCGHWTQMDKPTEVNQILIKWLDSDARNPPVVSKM
UniProt Q2NKX8: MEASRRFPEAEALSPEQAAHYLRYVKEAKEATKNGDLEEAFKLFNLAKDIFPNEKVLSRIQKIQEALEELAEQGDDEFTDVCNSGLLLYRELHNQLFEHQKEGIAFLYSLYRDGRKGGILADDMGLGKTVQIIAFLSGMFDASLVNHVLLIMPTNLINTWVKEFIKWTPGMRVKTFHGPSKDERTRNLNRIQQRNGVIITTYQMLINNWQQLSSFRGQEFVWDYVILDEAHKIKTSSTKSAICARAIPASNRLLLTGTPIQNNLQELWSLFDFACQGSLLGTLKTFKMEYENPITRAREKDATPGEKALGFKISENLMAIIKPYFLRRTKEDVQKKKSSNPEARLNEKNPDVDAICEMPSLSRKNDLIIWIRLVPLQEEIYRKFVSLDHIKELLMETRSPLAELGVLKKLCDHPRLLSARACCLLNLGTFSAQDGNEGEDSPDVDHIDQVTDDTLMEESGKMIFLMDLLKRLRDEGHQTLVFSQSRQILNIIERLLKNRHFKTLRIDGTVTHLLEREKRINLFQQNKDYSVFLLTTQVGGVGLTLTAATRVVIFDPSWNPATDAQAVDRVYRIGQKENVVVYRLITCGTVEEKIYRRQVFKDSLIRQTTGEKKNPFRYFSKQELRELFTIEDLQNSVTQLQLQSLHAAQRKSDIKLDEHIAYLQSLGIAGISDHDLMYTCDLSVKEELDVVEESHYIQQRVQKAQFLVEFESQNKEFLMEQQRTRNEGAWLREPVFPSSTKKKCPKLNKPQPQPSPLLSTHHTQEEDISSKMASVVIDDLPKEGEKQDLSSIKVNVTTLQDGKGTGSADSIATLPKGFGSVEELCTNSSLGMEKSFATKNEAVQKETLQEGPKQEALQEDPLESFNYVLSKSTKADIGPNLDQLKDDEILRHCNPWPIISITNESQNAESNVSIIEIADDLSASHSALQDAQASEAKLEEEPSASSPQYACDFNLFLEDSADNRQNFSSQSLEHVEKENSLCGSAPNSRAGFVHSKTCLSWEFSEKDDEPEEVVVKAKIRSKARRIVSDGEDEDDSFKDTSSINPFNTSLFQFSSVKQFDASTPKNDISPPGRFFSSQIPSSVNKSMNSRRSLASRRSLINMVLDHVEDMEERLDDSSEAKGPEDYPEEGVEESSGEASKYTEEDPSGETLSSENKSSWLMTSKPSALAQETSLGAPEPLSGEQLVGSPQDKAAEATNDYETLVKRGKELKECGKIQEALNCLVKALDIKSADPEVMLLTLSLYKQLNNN

Tests used:
Experiment in all cases: log2 fold change, soluble protein after heating vs DMSO (PISA); higher = thermal stabilisation; K562 lysate, 10 uM; active = over 0.2 and 3.5 SD of the protein, either way, in both replicates (recomputed)
[1] = compound: C1=CC=C(C=C1)[C@H](COC2=CC3=C(C=C2)NC(=O)N3)NC(=O)C4=CC=CN(C4=O)CC5=CC(=C(C=C5)F)F
Method in brief: (§1)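 Following dounce homogenisation of K562 pellets in PBS pH 7.4 with 1 mM MgCl2, crude extract at 1 mg/mL protein was incubated for 30 min with 10 μM compound. Aliquots were then heated for 3 min over 48°C-58°C and pooled, NP-40 was added to 0.5% at 4°C, and soluble protein was recovered as the supernatant at 21,000xg for 90 min. Channel-sum-equalised TMTpro 16plex LC-MS/MS quantified this protein. Each value, from duplicates, is a log-two fold change in thermal stability relative to solvent controls.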

[2] = compound: CC1=C(SC2=C1C(=N[C@H](C3=NN=C(N32)C)CC(=O)N)C4=CC=C(C=C4)Cl)C
Method in brief: as §1

[3] = compound: CC1=C2C(=CC=C1)N=C(N(C2=O)C3=CC=CC=C3C)CN4C=NC5=C(N=CN=C54)N
Method in brief: as §1

[4] = compound: Cc1sc2c(c1C)C(c1ccc(Cl)cc1)=N[C@@H](CC(=O)OC(C)(C)C)c1nnc(C)n1-2
Method in brief: as §1

[5] = compound: c1ccc([C@@H]2C[C@H]2NC2CCNCC2)cc1
Method in brief: as §1

Measured: log2 fold change

ELP4 (UniProt Q96EB1)
inactive: [1] 0.032 | [2] 0.026 | [3] 0.005 | [4] -0.022 | [5] -0.04

ENO3 (UniProt P13929)
inactive: [1] -0.056 | [2] 0.049 | [3] -0.092 | [4] 0.249 | [5] -0.117

EMC7 (UniProt Q9NPA0)
inactive: [1] 0.01 | [2] 0.02 | [3] 0.024 | [4] 0.005 | [5] -0.141

ENY2 (UniProt Q9NPA8)
inactive: [1] 0.033 | [2] -0.001 | [3] -0.162 | [4] 0.117 | [5] 0.386

EPB41L1 (UniProt Q9H4G0)
inactive: [1] -0.018 | [2] 0.073 | [3] -0.037 | [4] -0.112 | [5] 0.021

EIF4G3, A0A0U1RQK7
inactive: [1] -0.05 | [2] 0.01 | [3] 0.042 | [4] -0.008 | [5] 0.004

EIF2AK2 (UniProt P19525)
inactive: [1] 0.01 | [2] -0.002 | [3] -0.027 | [4] 0.216 | [5] 0.03

EPHX2 (UniProt P34913)
inactive: [1] 0.021 | [2] 0.006 | [3] 0 | [4] 0.119 | [5] -0.012

ERCC6L (UniProt Q2NKX8)
inactive: [1] -0.006 | [2] 0.044 | [3] 0.058 | [4] 0.023 | [5] 0.033
